These results are taken from the supplement of paper PMC3545927.

By UniProt entry, the sequences of proteins in these tests, tags left out.
furin, P09958, UniProt P09958, whole entry: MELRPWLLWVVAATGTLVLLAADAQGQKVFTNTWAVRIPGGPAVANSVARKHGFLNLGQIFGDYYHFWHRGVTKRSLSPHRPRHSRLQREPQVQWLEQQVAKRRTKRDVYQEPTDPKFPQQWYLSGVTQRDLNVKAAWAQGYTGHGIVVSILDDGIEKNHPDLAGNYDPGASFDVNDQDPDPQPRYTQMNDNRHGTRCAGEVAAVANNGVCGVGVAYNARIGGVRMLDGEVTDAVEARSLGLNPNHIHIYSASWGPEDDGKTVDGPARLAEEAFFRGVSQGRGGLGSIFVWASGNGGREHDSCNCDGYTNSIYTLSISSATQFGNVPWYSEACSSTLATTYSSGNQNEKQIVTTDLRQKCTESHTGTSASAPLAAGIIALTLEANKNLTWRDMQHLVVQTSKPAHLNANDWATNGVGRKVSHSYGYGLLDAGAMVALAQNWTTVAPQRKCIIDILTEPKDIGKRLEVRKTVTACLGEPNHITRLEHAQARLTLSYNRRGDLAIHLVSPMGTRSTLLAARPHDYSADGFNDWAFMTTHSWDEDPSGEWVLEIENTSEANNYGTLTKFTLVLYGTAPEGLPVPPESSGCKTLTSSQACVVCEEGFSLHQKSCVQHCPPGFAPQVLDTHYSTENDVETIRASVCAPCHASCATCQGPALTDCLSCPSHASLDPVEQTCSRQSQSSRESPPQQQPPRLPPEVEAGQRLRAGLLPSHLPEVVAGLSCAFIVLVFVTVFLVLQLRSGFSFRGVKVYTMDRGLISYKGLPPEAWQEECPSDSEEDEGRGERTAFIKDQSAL

The target of this test is furin, P09958. Briefly: furin cleavage Z-score vs untreated control; higher = more cleavage, active = 3.5 or more, inactive = 1 or less, 8 variable residues between constant flanks. Summed up:
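Sequencing of released DNA, tagged with adapters by PCR, gave read counts used as abundance. That DNA was freed when purified furin cut N-terminally bead-bound 8-mer peptides fused to a cDNA oligonucleotide, in 0.01 ml reactions at 1:10 enzyme:substrate in 50 mM HEPES pH 7.5 with CaCl2 and NaCl, lasting 7.5, 15 or 30 min. The cleavage Z-score was the lowess-adjusted log count versus furin-free reactions, scaled by median absolute deviation.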

The entries are a selection whose mix differs from that of the whole data set.

B1: HC528 (peptide)
chain: CALWMMLLISAGNASASA
With B1, the “furin cleavage Z-score” value by setting is: (7.5 min) inactive: -0.863; (15 min) inactive: -0.739; (30 min) inactive: -0.913.

B2: FS-2759 (peptide)
chain: CARQQRASRGAGNASASA
In the case of B2, the “furin cleavage Z-score” value amounted to 1.49 (7.5 min), 1.98 (15 min) and 2.01 (30 min).

B3: FS-1270 (peptide)
chain: CARRRSSKRAAGNASASA
In the case of B3, the “furin cleavage Z-score” value worked out at 2.32 (7.5 min), 3.16 (15 min) and 3.12 (30 min).

B4: FS-212 (peptide)
chain: CAAFSRAYRSAGNASASA
Turning to B4, the “furin cleavage Z-score” value amounted to 2.67 (7.5 min), 1.71 (15 min) and 3.1 (30 min).

B5: EK6 (peptide)
chain: CAEGERGFFYAGNASASA
Take B5: the “furin cleavage Z-score” value by setting is: (7.5 min) inactive: -2.12; (15 min) inactive: -0.423; (30 min) inactive: -2.28.

B6: HC2265 (peptide)
chain: CALLEVVTSTAGNASASA
As to B6, the “furin cleavage Z-score” value by setting is: (7.5 min) 1.42; (15 min) 1.27; (30 min) 1.4.

B7: HC343 (peptide)
chain: CAVGNWAKVLAGNASASA
On to B7, for which the “furin cleavage Z-score” value by setting is: (7.5 min) 1.09; (15 min) 1.18; (30 min) 2.08.

B8: HC258 (peptide)
chain: CARNSTGLYHAGNASASA
As for B8, the “furin cleavage Z-score” value by setting is: (7.5 min) inactive: 0.587; (15 min) inactive: -0.804; (30 min) inactive: -0.846.

B9: FS-2573 (peptide)
chain: CARLRRDVSRAGNASASA
Take B9: the “furin cleavage Z-score” value worked out at 1.84 (7.5 min), 2.31 (15 min) and 3.13 (30 min).

B10: FS-4 (peptide)
chain: CAAGGRGPREAGNASASA
For the sequence B10, the “furin cleavage Z-score” value runs as follows: (7.5 min) 2.6; (15 min) 3.28; (30 min) 2.72.

B11: FS-1721 (peptide)
chain: CARIKKWLEHAGNASASA
Take B11: the “furin cleavage Z-score” value runs as follows: (7.5 min) inactive: -1.04; (15 min) inactive: 0.181; (30 min) 1.15.

B12: FS-423 (peptide)
chain: CAGDIRVRRLAGNASASA
For B12, the “furin cleavage Z-score” value by setting is: (7.5 min) active: 3.94; (15 min) active: 5.14; (30 min) active: 6.57.

B13: HC480 (peptide)
chain: CARLEAACNWAGNASASA
Take B13: the “furin cleavage Z-score” value came to 1.97 (7.5 min), 2.25 (15 min) and 1.45 (30 min).

B14: FS-1232 (peptide)
chain: CALPSRVARLAGNASASA
With B14, the “furin cleavage Z-score” value came to 1.51 (7.5 min), 1.77 (15 min) and 1.82 (30 min).

B15: FS-2666 (peptide)
chain: CARFRRSRRTAGNASASA
On to B15, for which the “furin cleavage Z-score” value (7.5 min) is active: 7.49, the “furin cleavage Z-score” value (15 min) is active: 8.92 and the “furin cleavage Z-score” value (30 min) is active: 6.66.

B16: FS-2468 (peptide)
chain: CARTRRISQTAGNASASA
Take B16: the “furin cleavage Z-score” value (7.5 min) was inactive: -0.0765, the “furin cleavage Z-score” value (15 min) is inactive: 0.134 and the “furin cleavage Z-score” value (30 min) was inactive: 0.486.

B17: HC1213 (peptide)
chain: CAMTTDNLKCAGNASASA
For the sequence B17, the “furin cleavage Z-score” value is inactive: -0.575 (7.5 min), inactive: -0.0624 (15 min) and inactive: 0.0584 (30 min).

B18: FS-1439 (peptide)
chain: CAYLIRARRSAGNASASA
On to B18, for which the “furin cleavage Z-score” value reads like this: (7.5 min) 2.86; (15 min) 2.54; (30 min) 1.78.

B19: FS-2626 (peptide)
chain: CAAQKRSVGSAGNASASA
As to B19, the “furin cleavage Z-score” value reads like this: (7.5 min) inactive: 0.58; (15 min) inactive: 0.683; (30 min) inactive: -0.853.

B20: HC1455 (peptide)
chain: CAVCEKMALYAGNASASA
With B20, the “furin cleavage Z-score” value reads like this: (7.5 min) 1.19; (15 min) 1.97; (30 min) 1.59.

B21: HC1768 (peptide)
chain: CAMEECSQHWAGNASASA
On to B21, for which the “furin cleavage Z-score” value runs as follows: (7.5 min) 1.19; (15 min) 2.17; (30 min) 1.37.

B22: FS-511 (peptide)
chain: CATQSRIRRMAGNASASA
With B22, the “furin cleavage Z-score” value was active: 5.23 (7.5 min), active: 7.4 (15 min) and active: 6.25 (30 min).

B23: HC1299 (peptide)
chain: CAKSRRFAQAAGNASASA
For the sequence B23, the “furin cleavage Z-score” value was found to be 1.36 (7.5 min), 1.43 (15 min) and 1.63 (30 min).

B24: HC189 (peptide)
chain: CAQPRGRRQPAGNASASA
As to B24, the “furin cleavage Z-score” value reads like this: (7.5 min) 3.39; (15 min) 3.18; (30 min) 3.19.
